Structures can show the parent of a compound that is named as a salt. The list shows a part of the results. Hit calls seldom repeat between salt and free forms of one compound.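 In K562 cells expressing nanoluciferase-fused kinases, luminescence was recorded at 4 h intervals between 2 and 18 h, normalized as percent of control with DMSO at 100% and a positive control at 0%. A significant (2 sigma) signal drop marks a time point as decreased. The authors' rule for a hit is not shown and takes in more than the number of time points.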
Legend:
Assay in all cases: number of time points (of 5) at which kinase-Nluc abundance scored as decreased, DMSO-normalised (count); higher = more persistent destabilization
Settings in all cases: K562; 2-18 h
CAMK2A = CAMK2A (UniProt Q9UQM7)
CAMK2G = CAMK2G (UniProt Q13555)
CDK10 = CDK10 (UniProt Q15131)
CDK2 = CDK2 (UniProt P24941)
CDK3 = CDK3 (UniProt Q00526)
CDK5 = CDK5 (UniProt Q00535)
CDK6 = CDK6 (UniProt Q00534)
CHEK2 = CHEK2 (UniProt O96017)
CSF1R = CSF1R (UniProt P07333)
CSK = CSK (UniProt P41240)
CSNK1A1 = CSNK1A1 (UniProt P48729)
CSNK1D = CSNK1D (UniProt P48730)
DDR1 = DDR1 (UniProt Q08345)
DYRK1B = DYRK1B (UniProt Q9Y463)
DYRK2 = DYRK2 (UniProt Q92630)
EGFR = EGFR (UniProt P00533)
EGFR_G719S = EGFR_G719S (UniProt P00533)
EGFR_G719S_T790M = EGFR_G719S_T790M (UniProt P00533)
EGFR_L718V = EGFR_L718V (UniProt P00533)
EGFR_L858R = EGFR_L858R (UniProt P00533)

The chains behind the UniProt entries cited, without tags or fusion partners. Where a name states a change or a piece, a line headed by the entry shows the natural chain unless it says otherwise.
UniProt Q9UQM7, whole entry: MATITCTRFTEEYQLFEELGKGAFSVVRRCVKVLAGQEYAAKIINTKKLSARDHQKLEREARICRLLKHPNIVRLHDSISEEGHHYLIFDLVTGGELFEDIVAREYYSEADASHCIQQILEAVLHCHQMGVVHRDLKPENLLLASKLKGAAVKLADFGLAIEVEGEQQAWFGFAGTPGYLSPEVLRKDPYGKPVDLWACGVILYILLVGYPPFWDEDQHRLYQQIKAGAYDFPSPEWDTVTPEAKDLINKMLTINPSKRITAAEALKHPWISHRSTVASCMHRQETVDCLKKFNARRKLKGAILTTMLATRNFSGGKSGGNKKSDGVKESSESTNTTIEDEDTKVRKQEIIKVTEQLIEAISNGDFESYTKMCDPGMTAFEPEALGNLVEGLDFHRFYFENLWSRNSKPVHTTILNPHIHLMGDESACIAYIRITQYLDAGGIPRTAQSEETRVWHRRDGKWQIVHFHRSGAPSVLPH
UniProt Q13555: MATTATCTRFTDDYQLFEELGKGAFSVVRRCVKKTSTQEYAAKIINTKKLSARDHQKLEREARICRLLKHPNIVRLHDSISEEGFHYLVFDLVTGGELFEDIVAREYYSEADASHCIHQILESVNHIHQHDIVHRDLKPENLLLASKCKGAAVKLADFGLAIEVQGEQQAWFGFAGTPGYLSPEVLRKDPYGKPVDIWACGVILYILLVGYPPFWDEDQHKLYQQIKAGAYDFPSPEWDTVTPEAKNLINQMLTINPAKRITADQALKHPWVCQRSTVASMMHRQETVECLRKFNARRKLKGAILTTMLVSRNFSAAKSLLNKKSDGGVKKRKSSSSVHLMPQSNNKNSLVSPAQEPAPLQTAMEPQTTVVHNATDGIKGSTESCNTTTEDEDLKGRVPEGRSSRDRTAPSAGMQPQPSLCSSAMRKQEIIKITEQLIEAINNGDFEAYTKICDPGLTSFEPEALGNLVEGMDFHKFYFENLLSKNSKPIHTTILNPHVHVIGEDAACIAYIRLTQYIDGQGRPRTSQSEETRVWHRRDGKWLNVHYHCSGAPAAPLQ
UniProt Q15131: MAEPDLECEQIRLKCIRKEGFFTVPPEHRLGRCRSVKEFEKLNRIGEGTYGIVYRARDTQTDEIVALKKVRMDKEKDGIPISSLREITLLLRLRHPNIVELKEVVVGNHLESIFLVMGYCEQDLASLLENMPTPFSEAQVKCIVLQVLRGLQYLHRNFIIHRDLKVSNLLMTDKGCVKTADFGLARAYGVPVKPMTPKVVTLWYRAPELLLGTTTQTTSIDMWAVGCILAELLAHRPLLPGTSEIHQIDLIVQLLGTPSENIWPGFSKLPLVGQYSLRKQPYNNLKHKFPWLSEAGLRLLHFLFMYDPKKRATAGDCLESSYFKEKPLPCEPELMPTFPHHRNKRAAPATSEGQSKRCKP
UniProt Q00526: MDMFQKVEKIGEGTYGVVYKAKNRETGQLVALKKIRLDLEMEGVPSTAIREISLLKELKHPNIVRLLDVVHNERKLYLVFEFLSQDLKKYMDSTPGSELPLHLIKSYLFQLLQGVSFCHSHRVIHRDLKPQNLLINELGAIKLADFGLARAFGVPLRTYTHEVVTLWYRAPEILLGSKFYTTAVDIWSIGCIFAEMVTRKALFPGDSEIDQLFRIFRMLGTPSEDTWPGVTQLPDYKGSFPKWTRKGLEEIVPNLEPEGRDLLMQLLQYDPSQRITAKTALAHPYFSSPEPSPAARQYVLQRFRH
UniProt Q00534, whole entry: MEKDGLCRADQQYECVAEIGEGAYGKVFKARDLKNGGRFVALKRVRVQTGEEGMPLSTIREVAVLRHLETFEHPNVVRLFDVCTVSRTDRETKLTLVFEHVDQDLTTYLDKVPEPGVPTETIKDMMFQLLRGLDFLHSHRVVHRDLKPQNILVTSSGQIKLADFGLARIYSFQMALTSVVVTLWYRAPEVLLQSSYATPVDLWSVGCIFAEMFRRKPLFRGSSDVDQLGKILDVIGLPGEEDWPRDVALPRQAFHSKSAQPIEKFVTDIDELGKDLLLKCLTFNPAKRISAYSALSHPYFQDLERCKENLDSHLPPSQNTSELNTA
UniProt O96017, whole entry: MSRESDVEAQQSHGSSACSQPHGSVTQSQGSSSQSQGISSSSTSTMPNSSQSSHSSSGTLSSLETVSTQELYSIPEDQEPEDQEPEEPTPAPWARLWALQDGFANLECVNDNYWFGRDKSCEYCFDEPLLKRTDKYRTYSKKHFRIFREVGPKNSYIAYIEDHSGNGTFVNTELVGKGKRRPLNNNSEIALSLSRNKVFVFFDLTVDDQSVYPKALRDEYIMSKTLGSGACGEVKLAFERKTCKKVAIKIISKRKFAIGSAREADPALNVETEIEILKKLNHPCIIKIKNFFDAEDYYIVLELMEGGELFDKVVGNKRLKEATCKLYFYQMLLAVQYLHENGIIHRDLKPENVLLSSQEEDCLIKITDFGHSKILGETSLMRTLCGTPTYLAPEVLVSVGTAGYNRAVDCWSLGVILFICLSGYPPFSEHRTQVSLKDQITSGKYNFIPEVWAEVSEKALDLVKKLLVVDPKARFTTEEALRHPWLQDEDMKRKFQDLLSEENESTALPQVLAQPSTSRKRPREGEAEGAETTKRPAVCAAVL
UniProt P07333, whole entry: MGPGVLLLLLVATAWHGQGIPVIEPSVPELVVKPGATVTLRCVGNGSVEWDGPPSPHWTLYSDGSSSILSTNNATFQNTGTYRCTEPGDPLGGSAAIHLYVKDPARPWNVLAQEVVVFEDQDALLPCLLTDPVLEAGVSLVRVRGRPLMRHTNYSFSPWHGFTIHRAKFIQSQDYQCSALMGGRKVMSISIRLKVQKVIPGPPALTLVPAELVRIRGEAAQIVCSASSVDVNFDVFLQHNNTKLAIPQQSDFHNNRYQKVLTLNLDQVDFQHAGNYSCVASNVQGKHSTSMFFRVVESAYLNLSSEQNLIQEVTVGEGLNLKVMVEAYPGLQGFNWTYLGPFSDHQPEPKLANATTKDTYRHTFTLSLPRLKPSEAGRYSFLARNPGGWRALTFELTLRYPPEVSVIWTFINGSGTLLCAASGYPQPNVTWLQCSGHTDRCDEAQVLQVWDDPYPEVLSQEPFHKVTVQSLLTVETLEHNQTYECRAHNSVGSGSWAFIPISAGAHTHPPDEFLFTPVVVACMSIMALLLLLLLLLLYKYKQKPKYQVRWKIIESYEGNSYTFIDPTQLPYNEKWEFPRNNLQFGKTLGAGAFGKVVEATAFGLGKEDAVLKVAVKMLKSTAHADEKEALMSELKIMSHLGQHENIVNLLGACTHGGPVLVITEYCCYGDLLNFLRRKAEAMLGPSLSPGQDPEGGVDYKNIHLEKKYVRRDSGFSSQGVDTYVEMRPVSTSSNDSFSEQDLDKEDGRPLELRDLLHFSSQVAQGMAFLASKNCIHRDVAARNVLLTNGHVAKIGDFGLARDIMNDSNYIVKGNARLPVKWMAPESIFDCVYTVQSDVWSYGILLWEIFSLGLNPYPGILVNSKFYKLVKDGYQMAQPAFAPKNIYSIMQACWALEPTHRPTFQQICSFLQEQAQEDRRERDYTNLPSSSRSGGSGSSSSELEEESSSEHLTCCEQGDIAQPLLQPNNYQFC
UniProt P41240: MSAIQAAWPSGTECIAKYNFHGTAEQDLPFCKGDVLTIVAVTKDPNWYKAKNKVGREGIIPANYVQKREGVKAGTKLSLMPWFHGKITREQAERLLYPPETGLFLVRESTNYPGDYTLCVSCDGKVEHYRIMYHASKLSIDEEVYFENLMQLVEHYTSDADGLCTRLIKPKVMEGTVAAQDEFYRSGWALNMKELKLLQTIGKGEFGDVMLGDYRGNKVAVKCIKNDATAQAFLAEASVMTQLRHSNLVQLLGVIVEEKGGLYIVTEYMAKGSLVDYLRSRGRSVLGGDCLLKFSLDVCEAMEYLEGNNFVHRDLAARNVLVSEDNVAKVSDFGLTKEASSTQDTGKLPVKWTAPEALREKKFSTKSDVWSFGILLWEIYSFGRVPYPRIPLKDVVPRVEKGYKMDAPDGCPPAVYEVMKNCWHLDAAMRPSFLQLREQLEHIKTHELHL
UniProt P48730: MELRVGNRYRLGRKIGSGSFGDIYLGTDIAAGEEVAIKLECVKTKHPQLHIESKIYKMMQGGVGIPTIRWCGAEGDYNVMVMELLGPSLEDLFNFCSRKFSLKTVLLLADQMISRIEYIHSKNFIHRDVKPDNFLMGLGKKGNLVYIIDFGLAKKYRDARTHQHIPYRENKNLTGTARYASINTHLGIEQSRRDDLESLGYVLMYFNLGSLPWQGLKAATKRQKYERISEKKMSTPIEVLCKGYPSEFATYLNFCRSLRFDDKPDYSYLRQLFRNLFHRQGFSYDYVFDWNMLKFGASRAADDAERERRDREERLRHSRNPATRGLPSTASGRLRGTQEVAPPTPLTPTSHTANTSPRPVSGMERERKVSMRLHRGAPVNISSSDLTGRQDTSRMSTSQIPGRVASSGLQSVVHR
UniProt Q08345: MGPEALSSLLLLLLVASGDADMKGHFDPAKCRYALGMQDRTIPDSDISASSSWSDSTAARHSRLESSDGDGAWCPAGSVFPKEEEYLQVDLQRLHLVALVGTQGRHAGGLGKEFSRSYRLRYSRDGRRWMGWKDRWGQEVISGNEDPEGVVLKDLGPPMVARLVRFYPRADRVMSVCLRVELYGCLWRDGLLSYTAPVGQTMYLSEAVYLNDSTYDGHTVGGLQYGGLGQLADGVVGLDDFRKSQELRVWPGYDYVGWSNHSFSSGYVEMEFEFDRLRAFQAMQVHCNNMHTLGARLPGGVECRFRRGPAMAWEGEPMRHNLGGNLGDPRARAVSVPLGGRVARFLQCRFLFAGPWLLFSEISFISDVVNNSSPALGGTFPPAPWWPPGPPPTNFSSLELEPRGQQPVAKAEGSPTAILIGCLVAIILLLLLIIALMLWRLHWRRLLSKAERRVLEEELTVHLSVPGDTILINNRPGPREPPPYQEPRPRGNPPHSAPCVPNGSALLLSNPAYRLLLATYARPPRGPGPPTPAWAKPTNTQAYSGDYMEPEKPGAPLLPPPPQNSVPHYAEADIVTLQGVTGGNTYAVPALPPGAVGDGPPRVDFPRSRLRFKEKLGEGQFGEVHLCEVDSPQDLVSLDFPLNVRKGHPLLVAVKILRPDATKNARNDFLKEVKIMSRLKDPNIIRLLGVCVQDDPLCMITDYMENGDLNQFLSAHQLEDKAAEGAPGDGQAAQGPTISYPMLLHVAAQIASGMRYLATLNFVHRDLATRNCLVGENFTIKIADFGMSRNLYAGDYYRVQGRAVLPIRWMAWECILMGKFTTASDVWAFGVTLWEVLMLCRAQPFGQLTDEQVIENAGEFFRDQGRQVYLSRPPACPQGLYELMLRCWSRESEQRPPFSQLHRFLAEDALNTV
UniProt Q9Y463, whole entry, looked up: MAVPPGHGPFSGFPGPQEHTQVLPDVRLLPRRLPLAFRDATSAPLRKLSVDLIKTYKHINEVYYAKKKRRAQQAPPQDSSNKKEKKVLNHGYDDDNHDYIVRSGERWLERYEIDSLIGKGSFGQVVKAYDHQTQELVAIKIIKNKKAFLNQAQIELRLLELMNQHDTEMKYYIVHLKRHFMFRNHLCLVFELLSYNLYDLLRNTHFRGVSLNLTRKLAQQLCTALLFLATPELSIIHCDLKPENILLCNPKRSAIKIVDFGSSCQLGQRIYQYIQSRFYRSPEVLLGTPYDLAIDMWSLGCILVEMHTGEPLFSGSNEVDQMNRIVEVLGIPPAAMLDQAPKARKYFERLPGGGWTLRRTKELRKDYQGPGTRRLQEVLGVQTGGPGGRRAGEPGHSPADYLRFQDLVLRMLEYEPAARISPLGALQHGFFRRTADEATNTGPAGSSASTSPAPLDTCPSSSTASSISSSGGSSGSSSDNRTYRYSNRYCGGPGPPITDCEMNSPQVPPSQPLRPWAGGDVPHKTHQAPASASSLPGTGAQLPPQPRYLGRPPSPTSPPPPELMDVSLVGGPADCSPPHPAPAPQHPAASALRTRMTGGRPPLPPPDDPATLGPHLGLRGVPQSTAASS
UniProt Q92630: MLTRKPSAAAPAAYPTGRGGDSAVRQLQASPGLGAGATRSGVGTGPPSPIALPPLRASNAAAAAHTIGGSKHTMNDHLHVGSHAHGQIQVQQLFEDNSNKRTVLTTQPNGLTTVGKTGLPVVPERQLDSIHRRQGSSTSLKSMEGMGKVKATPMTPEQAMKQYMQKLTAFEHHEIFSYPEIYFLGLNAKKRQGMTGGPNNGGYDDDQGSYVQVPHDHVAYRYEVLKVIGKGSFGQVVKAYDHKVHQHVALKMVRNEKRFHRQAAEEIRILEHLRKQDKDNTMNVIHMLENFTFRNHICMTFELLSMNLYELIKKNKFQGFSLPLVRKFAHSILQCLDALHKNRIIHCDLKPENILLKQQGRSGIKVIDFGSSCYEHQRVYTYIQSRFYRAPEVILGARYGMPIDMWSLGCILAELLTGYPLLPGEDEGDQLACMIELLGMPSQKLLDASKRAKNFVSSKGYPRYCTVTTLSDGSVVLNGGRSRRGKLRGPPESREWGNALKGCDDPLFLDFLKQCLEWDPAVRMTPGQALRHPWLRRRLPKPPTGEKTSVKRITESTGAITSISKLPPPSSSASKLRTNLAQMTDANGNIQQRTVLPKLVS

Measured: number of time points

COc1ncc(Cl)cc1S(=O)(=O)Nc1ccc(F)c(C#Cc2cnc(N)nc2)c1F (2.5 µM)
5: CSNK1A1
1: EGFR
2: EGFR_G719S
0: all other assays above

COc1ccc(Cl)c(Nc2nc3ccccc3nc2NS(=O)(=O)c2cccc(NC(=O)C(C)(C)N)c2)c1 [Pilaralisib] (10 µM)
0: all assays above

CC(C)(C)c1nc(-c2cccc(NS(=O)(=O)c3c(F)cccc3F)c2F)c(-c2ccnc(N)n2)s1 [Dabrafenib] (2.5 µM)
0: all assays above

C=C1C(=O)O[C@H]2C[C@H](C)C(/C=C/C(C)=O)=CC[C@H]12 [Xanthatin] (2.5 µM)
0: all assays above

CCc1c(C(=O)NNC(=O)C(O)c2cc(F)cc(F)c2)ccc(O)c1C (stereo not given) (10 µM)
0: all assays above

O=C([O-])c1cc2ccccc2c(Cc2c(O)c(C(=O)[O-])cc3ccccc23)c1O.[Na+].[Na+] [Pamoic acid (disodium)] (10 µM)
0: all assays above

O=c1[nH]c(=O)n([C@@H]2O[C@H](CO)[C@@H](O)[C@@H]2O)cc1/C=C/Br [Sorivudine] (10 µM)
1: EGFR_G719S
0: all other assays above

Cn1cnc2c(F)c(Nc3ccc(Br)cc3Cl)c(C(=O)NOCCO)cc21 [Selumetinib] (10 µM)
1: DDR1
0: all other assays above

S=C(SSC(=S)N1CCOCC1)N1CCOCC1 (10 µM)
2: DDR1
1: CSF1R | EGFR_G719S_T790M
3: CHEK2
0: all other assays above

N#CCC1CCN(c2nc(Nc3ccc(N4CCC(O)CC4)cc3)c3c(=O)[nH]ncc3n2)CC1 [Gusacitinib] (10 µM)
0: all assays above

C[C@@H]1CC[C@@H](Nc2nc(NC(C)(C)C)ncc2C(N)=O)C[C@H]1O (10 µM)
0: all assays above

c1cncc(CN2CCC(n3ncc4c(N5CCOCC5)nc(-c5ccc6[nH]ccc6c5)nc43)CC2)c1 (10 µM)
1: DYRK1B | EGFR_G719S
3: CSNK1D
4: DDR1 | DYRK2
2: CHEK2 | EGFR_G719S_T790M | EGFR_L858R
0: all other assays above

O=C(NCCN1CCCC1)c1cc(-c2ccc(CN3CCOCC3)cc2)nc2ccc(F)cc12 (10 µM)
0: all assays above

C=C(CC[C@@H](C(=O)O)[C@H]1[C@H](O)C[C@@]2(C)C3=C(CC[C@]12C)[C@@]1(C)CC[C@H](OC(C)=O)C(C)(C)[C@@H]1CC3)C(C)C [Pachymic acid] (10 µM)
0: all assays above

O=C(O)CCC(=O)Nc1ccc(Br)cn1 [Bikinin] (10 µM)
0: all assays above

CC(=O)c1c(C)cc2cccc(O)c2c1O [Nepodin] (10 µM)
0: all assays above

CC1CCc2c(cc(Br)c(F)c2Br)N1C=O (stereo not given) (10 µM)
0: all assays above

C[C@@H]1COCCN1c1cc(C2([S@@](C)(=N)=O)CC2)nc(-c2ccnc3[nH]ccc23)n1 [(S)-Ceralasertib] (10 µM)
0: all assays above

Arranged by count of non-hydrogen atoms (rising): some entries from above.
C=C1C(=O)O[C@H]2C[C@H](C)C(/C=C/C(C)=O)=CC[C@H]12 [Xanthatin] (2.5 µM)
0: all assays above

O=c1[nH]c(=O)n([C@@H]2O[C@H](CO)[C@@H](O)[C@@H]2O)cc1/C=C/Br [Sorivudine] (10 µM)
1: EGFR_G719S
0: all other assays above

O=C(NCCN1CCCC1)c1cc(-c2ccc(CN3CCOCC3)cc2)nc2ccc(F)cc12 (10 µM)
0: all assays above

(more compounds)

Oc1ccc(Nc2nc(-c3ccc(Cl)cc3)cs2)cc1 (10 µM)
0: all assays above

Nc1cc(C(F)(F)F)c(-c2cc(N3CCOCC3)nc(N3CCOCC3)n2)cn1 [Buparlisib (Hydrochloride)] (2.5 µM)
1: CSF1R
0: all other assays above

Cc1cc(CN2CCN(c3c(Br)cnc4nc(-c5ccc(N6CCN(C)CC6)cc5)[nH]c34)CC2)no1 (2.5 µM)
0: all assays above

CC(C)(C)c1cc(O)ccc1O (10 µM)
0: all assays above

O=C(CSC1=NCCN1)NC1CCCCCC1 [ICCB-19 (hydrochloride)] (2.5 µM)
2: EGFR_G719S
0: all other assays above

COc1cc2ncnc(Nc3ccc(Cl)cc3F)c2cc1OC (10 µM)
0: all assays above

Reference: the supplement of paper PMC12823440, “Inhibitors supercharge kinase turnover through native proteolytic circuits” (Nature, 2025)
